# Source: PubChem BioAssay AID504791 (Drosophila RNAi Screening Center, 2011)
# Purpose: 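Genes whose knock-down strengthens or weakens small-RNA reporter silencing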 (primary screen)
# Cell system: Drosophila S2-derived reporter cells
# Knock-down reagent: long dsRNA against Drosophila genes, about 150-250 ng dsRNA per well (siRNA assay); about 80-120 ng (miRNA assay)
# Timing: about 5 days (siRNA assay); about 4 days (miRNA assay)
# Challenge: copper sulfate induction of reporters: 25 µM (siRNA assay); 200 mM stated (miRNA assay), 1-2 days before reading
# Measurement: 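Per-well ratio of Renilla over firefly light, expressed relative to that plate's average ratio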
# Scale: siRNA reporter hit score: higher = 3 marks a strong hit with raised ratio; -3 a strong hit with lowered ratio
# Rule for the call: 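First-pass picks had plate-scaled ratios over 1.5 for the siRNA assay, over 1.6 for the miRNA assay, or under 0.6; two distinct dsRNAs had to score alike on retest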
# The screen tested about 23,000 reagents; shown is a random part of those that have a named target and a result. Of all reagents, 199 (0.86%) were called active. 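Plate-scaled ratios behind the calls are not deposited; printed light signals are raw; many rows marked increased or decreased are still called inactive.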 Reagents against one gene are numbered here. A plus sign joins genes that one reagent is predicted to hit.
Target gene,dsRNA no.,siRNA reporter hit score,stable siRNA reporter change,miRNA reporter change,"stable assay Renilla, run 1 (luminescence)","stable assay firefly, run 1 (luminescence)",Call
MsrA (GeneID 39675),1,,,,7070,4.92e5,inactive
CecA1 (GeneID 43596),1,,,,6955,4.70e5,inactive
Grip (GeneID 50391),1,,,,5315,2.67e5,inactive
Grip (GeneID 50391),2,,,,4860,2.40e5,inactive
CG7457 (GeneID 38865),1,,,,6992,3.94e5,inactive
pie (GeneID 44315),1,,,,17988,8.37e5,inactive
TkR86C (GeneID 41286),1,,,,6900,3.91e5,inactive
Tim10 + CG42497,1,,,,11464,9.58e5,inactive
CG2652 (GeneID 31250),1,,,,4387,3.92e5,inactive
CG2652 (GeneID 31250),2,,,,4655,4.11e5,inactive
CG13326 (GeneID 36439),1,,,,8768,4.14e5,inactive
CanA-14F (GeneID 8674098),1,,,,5655,3.94e5,inactive
CanA-14F (GeneID 8674098),2,,,,2720,2.72e5,inactive
pyr (GeneID 36255),1,,,,4696,3.28e5,inactive
pyr (GeneID 36255),2,,,,5682,5.51e5,inactive
Jabba (GeneID 37164),1,,,,9991,3.80e5,inactive
Dnz1 (GeneID 34503),1,,,,6598,6.45e5,inactive
Cluap1 (GeneID 33142),1,,,,3176,3.86e5,inactive
CG5149 (GeneID 34013),1,,,,11058,7.97e5,inactive
Noa36 (GeneID 43384),1,,,,7590,4.57e5,inactive
Kat60 (GeneID 53566),1,,,,7342,5.08e5,inactive
CG31687 + Cdc23,1,,,,7155,4.20e5,inactive
Prim1 (GeneID 38942),1,,,,7214,4.18e5,inactive
Sumo (GeneID 33981),1,,reporter ratio lowered past the hit cutoff,,49555,9.31e5,active
FeCH (GeneID 43757),1,,,,7479,4.08e5,inactive
CG4452 (GeneID 39069),1,,,,7035,3.30e5,inactive
CG17207 (GeneID 2768665),1,,,,6967,3.11e5,inactive
Ice1 (GeneID 37701),1,,reporter ratio raised past the hit cutoff,,8529,2.86e5,inactive
RpS30 (GeneID 42470),1,3,,,6775,2.66e5,inactive
RpS30 (GeneID 42470),2,,,reporter ratio lowered past the hit cutoff,,,active
CG11294 (GeneID 31807),1,,,,5682,2.30e5,inactive
Pcp (GeneID 33985),1,,,,6898,4.12e5,inactive
fliI (GeneID 33110),1,,,,4772,3.73e5,inactive
dpr20 (GeneID 38101),1,,,,10517,4.73e5,inactive

Individual results from the entries so far:
Value for pyr (GeneID 36255) #1 in “stable assay firefly, run 1 (luminescence)”: 3.28e5
Under “Call”, CG2652 (GeneID 31250) #1 reads inactive
Entry of Sumo (GeneID 33981) under “stable assay firefly, run 1 (luminescence)”: 9.31e5
For “stable assay Renilla, run 1 (luminescence)”, CG31687 + Cdc23 reads 7155
